The other results are listed elsewhere or left out. These are further read-outs of the screen, such as a control signal, another cell line or another target. No call is given for them. The list favours compounds with an active or inconclusive main result. The note in brackets gives the kind of curve behind each potency; many fits are weak.
assay: qHTS Assay for Identifying the Cell-Membrane Permeable IMPase Inhibitors; conditions: CHO-M1 cells, IP1 accumulation, HTRF TR-FRET ratio; measured here: donor channel 620 nm AC50

Row | Structure (SMILES) | AC50
1 | CCOc1ccc2c(c1)C(c1ccc(C)cc1)=NNC(c1ccc(C)cc1)=N2 | 0.631 µM [falling, full curve]
2 | CCOC(=O)N1CCC(NC(=O)c2ccc3c(c2)N(Cc2ccc(C)cc2)CCS3)CC1 | 0.0355 µM [falling, full curve]
3 | O=C(Oc1ccccc1)Oc1ccc2c(c1)oc(=O)c1ccccc12 | 25.1 µM [rising, partial curve]
4 | CCOC(=O)CCc1c(C)c2ccc(OCc3ccc([N+](=O)[O-])cc3)cc2oc1=O | 0.00158 µM [falling, full curve, poor fit]
5 | N#C/C(=C/c1ccc(N2CCOCC2)o1)c1nc2ccccc2[nH]1 | 0.794 µM [falling, single point]
6 | O=C(Nc1nnc(-c2ccccc2SCc2ccccc2)s1)Nc1ccccc1F | 1 µM [rising, full curve]
7 | CC(=O)CC(C)=NCCN=C(C)CC(C)=O | 31.6 µM [falling, single point]
8 | O=C(O)CCCNc1cc(N2CCC3(CC2)OCCO3)c2noc3c2c1C(=O)c1ccccc1-3 | 20 µM [falling, partial curve, poor fit]
9 | CCOCC(=O)Nc1nc2c(s1)C(=O)CC(C)(C)C2 | 11.2 µM [falling, partial curve, poor fit]
10 | Cc1cc(OCCOCCN(C)CCO)cc(C)c1Cl | 12.6 µM [falling, partial curve, poor fit]
11 | O=C(CSc1nc(-c2ccccc2)nc2c1Cc1ccccc1O2)Nc1ccccc1 | 31.6 µM [rising, single point]
12 | CCOc1ccccc1NC(=O)Cc1ccccc1OC | 6.31 µM [rising, single point]
13 | COC(=O)c1c(NC(=O)CN2C(=O)C(=O)N(CC(C)C)C2=O)sc2c1CCCCC2 | 0.0126 µM [rising, full curve, poor fit]
14 | Cc1cccc2cc(C#N)c(SCC(=O)NCC3CCCO3)nc12 (centres undefined) | 31.6 µM [rising, partial curve]
15 | O=C(CSc1nnc(Cc2cccs2)n1C1CCCCC1)N1CCN(C(=O)c2ccco2)CC1 | 0.0251 µM [rising, full curve, poor fit]
16 | CC(Sc1ccc2ccccc2n1)C(=O)O (centres undefined) | 12.6 µM [rising, partial curve]
17 | CCOc1cc(C(=O)Nc2ccc3oc(-c4ccc(F)cc4Cl)nc3c2)cc(OCC)c1OCC | 4.47 µM [rising, single point]
18 | FC(F)(F)c1cc(-c2cccs2)nc(N2CCOCC2)n1 | 0.282 µM [rising, full curve, poor fit]
19 | Cc1nc(SC2CC(=O)N(c3ccc([N+](=O)[O-])cc3)C2=O)nc2c1CCCC2 (centres undefined) | 0.316 µM [falling, partial curve, poor fit]
20 | O=C(CSc1nc(-c2ccc(F)cc2)cc(C(F)(F)F)n1)NCc1ccccc1 | 0.501 µM [falling, full curve]
21 | CCOc1ccc(OCC(=O)N2CCOCC2)cc1 | 0.891 µM [falling, full curve, poor fit]
22 | CNCCCC12CCC(c3ccccc31)c1ccccc12 | 7.94 µM [falling, single point]

Row | Structure (SMILES) | AC50
23 | CCOC(=O)c1nnn(CC(=O)Nc2cc(F)ccc2F)c1C(=O)OCC | 0.0316 µM [falling, full curve, poor fit]
24 | COC(=O)c1[nH]c2cc(OC)ccc2c1N | 12.6 µM [falling, single point]
25 | O=C(c1ccc2c(c1)OCO2)N1CCN(c2ccc(F)cc2)CC1 | 0.0501 µM [rising, partial curve, poor fit]
26 | Cc1ccc(Cn2c(NC(=O)c3ccco3)nc3ccccc32)cc1 | 3.16 µM [falling, single point]
27 | Cc1cccc(C)c1NC(=O)NC1(C(=O)NCCCN2CCOCC2)CCCCC1 | 3.98 µM [falling, single point]
28 | COCCCNC(=O)c1cc2c(=O)n3cc(C)ccc3nc2nc1NCC1CCCO1 (centres undefined) | 0.0282 µM [rising, full curve]
29 | Cc1c(C(=O)O)c(O)cc2c1C(=O)c1c(O)c([C@H]3O[C@H](CO)[C@@H](O)[C@H](O)[C@H]3O)c(O)c(O)c1C2=O | 3.98 µM [falling, partial curve, poor fit]
30 | O=S(=O)(c1cccc(S(=O)(=O)N2CCC(Cc3ccccc3)CC2)c1)N1CCOCC1 | 0.0126 µM [falling, full curve, poor fit]
31 | CC(C)CNC(=O)c1noc2c1CCCC2 | 12.6 µM [falling, partial curve]
32 | Cc1ccnc(NC(=O)CCC(=O)N(CC(=O)NC2CCCCC2)Cc2ccc3c(c2)OCO3)c1 | 5.01 µM [falling, single point]
33 | O=C(C1CCCN(S(=O)(=O)c2cccc3nonc23)C1)N1CCN(c2ccccc2F)CC1 (centres undefined) | 3.16 µM [falling, partial curve, poor fit]
34 | CCCCCN1C(C(=O)c2ccccc2)=C(NC(=O)c2ccc(OC)c(OC)c2)c2ccccc2S1(=O)=O | 5.62 µM [rising, single point]
35 | O=C1CCc2cc(S(=O)(=O)N3CCC(C(=O)NCc4ccccn4)CC3)ccc2N1 | 0.0398 µM [rising, full curve, poor fit]
36 | CCC(C)(C)NC(=O)C(c1ccccc1F)N(Cc1ccco1)C(=O)Cn1nnc2ccccc21 (centres undefined) | 25.1 µM [falling, single point]
37 | CCCC(c1nnnn1Cc1ccc(OC)cc1)N1CCN(c2ccccc2)CC1 (centres undefined) | 31.6 µM [falling, single point]
38 | COC(=O)C1=C(CSc2nc3c(cc2C#N)CN(C)CC3)OC(N)=C(C#N)C1c1ccc(F)cc1 (centres undefined) | 0.251 µM [rising, single point]
39 | O=C(Nc1ccc2nc(-c3cccnc3)[nH]c2c1)c1ccco1 | 17.8 µM [falling, single point]
40 | CCS(=O)(=O)n1nc(-c2ccccc2)nc1N | 1 µM [falling, single point]
41 | COc1ccccc1-c1c(C(F)(F)F)oc2c(CN3CCCCC3C)c(O)ccc2c1=O (centres undefined) | 3.55 µM [falling, partial curve, poor fit]
42 | COC(=O)c1ccc(C(=O)OC)c(-n2c(=O)c3ccccc3c3ccccc3c2=O)c1 | 35.5 µM [falling, single point]
43 | Cc1cccc2cc(CN(Cc3ccc4c(c3)OCO4)Cc3nnnn3C3CCCC3)c(=O)[nH]c12 | 31.6 µM [rising, single point]
44 | COC(=O)C1=C(C)N(C)C(C)=C(C(=O)OC)C1c1ccc(C(=O)OC)cc1 | 0.794 µM [falling, full curve, poor fit]

2 of these compounds in a different format.

| Row | Structure (SMILES) | AC50 |
| --- | --- | --- |
| 26 | Cc1ccc(Cn2c(NC(=O)c3ccco3)nc3ccccc32)cc1 | 3.16 µM [falling, single point] |
| 44 | COC(=O)C1=C(C)N(C)C(C)=C(C(=O)OC)C1c1ccc(C(=O)OC)cc1 | 0.794 µM [falling, full curve, poor fit] |

Additional entries follow.

Row | Structure (SMILES) | AC50
45 | CCCSc1nc2c(cnn2-c2ccc(C)cc2)c(=O)[nH]1 | 35.5 µM [falling, single point]
46 | COC(=O)c1sc(N2C(=O)C(O)=C(C(=O)c3ccc(C)o3)C2c2ccc(F)cc2)nc1C (centres undefined) | 20 µM [rising, partial curve]
47 | c1cnc(N2CC[N+]3(CCCC3)CC2)nc1 | 5.01 µM [falling, single point]
48 | C=CCOc1cccc(C2C(C(=O)c3ccc(C)o3)=C(O)C(=O)N2c2nccs2)c1 (centres undefined) | 15.8 µM [rising, partial curve, poor fit]
49 | CCCCOc1ccc(C(=O)N2CCCC2C(=O)O)cc1 (centres undefined) | 5.62 µM [falling, single point]
50 | CCn1c(=O)cc(SCC(=O)N2CCCCC2)c2ccccc21 | 0.0126 µM [rising, full curve, poor fit]
51 | CC(=O)CCCCn1c(=O)c2c(ncn2C)n(C)c1=O | 0.0251 µM [falling, full curve, poor fit]
52 | COc1ccc2c(c1)CCc1c(C(=O)N3CCCC3)noc1-2 | 31.6 µM [falling, single point]
53 | Cc1nonc1NC(=O)CSc1nc2cc(Cl)ccc2c2c1CCCC2 | 12.6 µM [rising, partial curve]
54 | O=C1CC(N2CCN(c3ccccc3)CC2)C(=O)N1c1ccc2c(c1)OCCO2 (centres undefined) | 6.31 µM [rising, single point]
55 | O=C(CSc1nnc(-c2ccncc2)n1Cc1ccco1)Nc1nccs1 | 35.5 µM [rising, single point]
56 | COc1cc(-c2nnc(-c3ccccc3)o2)cc(OC)c1OC | 0.794 µM [falling, full curve]
57 | COc1ccc(NC(=O)c2c(NC(=O)Cc3ccccc3)sc3c2CCCC3)cc1 | 0.0501 µM [falling, full curve, poor fit]
58 | N#C/C(=C\C1CC2C=CC1C2)c1nc2ccccc2[nH]1 (centres undefined) | 25.1 µM [falling, partial curve]
59 | Cc1cc(C)cc(-n2c(SCC(=O)NCc3ccc4c(c3)OCO4)nc3ccccc3c2=O)c1 | 35.5 µM [rising, single point]
60 | CC(=O)C1=C(O)C(=O)N(C2CCCCC2)C1c1ccccc1 (centres undefined) | 0.794 µM [falling, full curve]
61 | O=C1C(=O)c2ccc(-c3ccccc3)cc2-c2ccccc21 | 1 µM [falling, full curve]
62 | Cc1cccc(-c2nc(SCC(=O)Nc3ccc4c(c3)OCCO4)c(-c3ccccc3)[nH]2)c1 | 2.82 µM [falling, partial curve]
63 | O=C(NCC(=O)N(Cc1ccccc1)C(C(=O)NCC1CCCO1)c1ccccc1)c1cccs1 (centres undefined) | 35.5 µM [falling, single point]
64 | O=C(CCN1C(=O)c2ccccc2C1=O)Nc1cccnc1 | 0.316 µM [falling, partial curve]

From PubChem BioAssay AID901 (National Center for Advancing Translational Sciences (NCATS), 2007)
